Laboratory results as given in article PMC5105134.

Chains of the proteins cited; added tags and fusions are not shown. Lines headed by an entry give the natural chain unless they say otherwise; changes in a name come on top.
UniProt P13498: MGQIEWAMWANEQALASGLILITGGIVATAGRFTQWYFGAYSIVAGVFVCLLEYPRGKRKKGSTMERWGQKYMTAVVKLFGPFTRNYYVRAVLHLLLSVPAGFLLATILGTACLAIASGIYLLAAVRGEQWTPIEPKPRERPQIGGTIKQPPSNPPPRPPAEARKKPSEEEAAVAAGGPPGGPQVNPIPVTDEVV
UniProt Q9QZC1: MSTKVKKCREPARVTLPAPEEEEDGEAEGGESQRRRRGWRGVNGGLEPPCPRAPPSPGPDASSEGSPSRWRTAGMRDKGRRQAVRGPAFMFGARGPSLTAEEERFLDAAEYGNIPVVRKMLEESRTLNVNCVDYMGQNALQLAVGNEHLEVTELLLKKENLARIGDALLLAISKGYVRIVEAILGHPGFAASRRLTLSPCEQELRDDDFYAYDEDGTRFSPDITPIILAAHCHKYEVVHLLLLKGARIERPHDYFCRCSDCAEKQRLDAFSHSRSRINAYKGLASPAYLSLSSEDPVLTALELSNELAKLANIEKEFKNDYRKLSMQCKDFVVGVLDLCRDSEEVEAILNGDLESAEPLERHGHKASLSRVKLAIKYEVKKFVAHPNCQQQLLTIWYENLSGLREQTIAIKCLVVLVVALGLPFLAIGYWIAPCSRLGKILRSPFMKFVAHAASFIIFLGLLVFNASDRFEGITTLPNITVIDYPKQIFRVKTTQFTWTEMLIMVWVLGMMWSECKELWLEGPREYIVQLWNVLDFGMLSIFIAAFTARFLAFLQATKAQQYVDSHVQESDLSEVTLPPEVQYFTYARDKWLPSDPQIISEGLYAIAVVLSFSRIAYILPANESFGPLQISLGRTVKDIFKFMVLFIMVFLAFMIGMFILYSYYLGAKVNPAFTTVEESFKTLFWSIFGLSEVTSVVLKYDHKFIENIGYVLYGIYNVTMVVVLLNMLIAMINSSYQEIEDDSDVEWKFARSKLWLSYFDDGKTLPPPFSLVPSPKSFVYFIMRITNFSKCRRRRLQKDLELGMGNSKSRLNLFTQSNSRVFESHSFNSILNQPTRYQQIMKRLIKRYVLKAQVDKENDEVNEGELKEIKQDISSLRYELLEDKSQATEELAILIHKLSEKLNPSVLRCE

Legend:
[1] = target: T1, flag-tagged Nox2 (Flag-Nox2) (UniProt P04839); assay: co-IP; HEK293 cells; co-immunoprecipitation of TRPC3 with Nox2 in the presence or absence of co-expressed C3-C fragment
T1 sequence: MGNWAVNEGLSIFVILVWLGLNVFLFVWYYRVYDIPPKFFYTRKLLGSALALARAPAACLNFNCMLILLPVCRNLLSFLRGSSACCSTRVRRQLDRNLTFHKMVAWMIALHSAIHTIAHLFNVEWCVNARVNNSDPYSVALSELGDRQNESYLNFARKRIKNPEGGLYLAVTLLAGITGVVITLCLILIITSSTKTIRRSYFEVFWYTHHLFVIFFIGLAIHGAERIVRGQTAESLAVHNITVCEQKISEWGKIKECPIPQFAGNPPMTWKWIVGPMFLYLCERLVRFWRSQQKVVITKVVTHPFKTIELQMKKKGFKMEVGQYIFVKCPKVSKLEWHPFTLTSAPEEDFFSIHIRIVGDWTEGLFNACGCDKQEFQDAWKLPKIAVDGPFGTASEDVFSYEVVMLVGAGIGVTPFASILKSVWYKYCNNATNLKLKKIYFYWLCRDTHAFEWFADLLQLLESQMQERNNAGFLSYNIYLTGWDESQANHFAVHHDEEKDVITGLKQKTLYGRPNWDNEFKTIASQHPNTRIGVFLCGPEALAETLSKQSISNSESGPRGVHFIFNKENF

[2] = target: T1, flag-tagged Nox2 (Flag-Nox2); assay: co-IP; CHO cells (lacking endogenous p22phox) co-expressing TRPC3-GFP, Flag-Nox2 and myc-p22phox; precipitating antibody of each panel not given
[3] = target: myc-tagged p22phox (myc-p22phox) (UniProt P13498); assay: as above
[4] = target: T1, flag-tagged Nox2 (Flag-Nox2); assay: co-IP; HEK293 cells co-expressing TRPC3-GFP and Flag-Nox2; lysis in 20 mM Tris-HCl pH 7.5, 1% Triton X-100, 150 mM NaCl; immunoprecipitation with anti-flag M2 Affinity Gel, western blot

Row | binding [1] | binding [2] | binding [3] | binding [4] | Substance
1 | binds | – | – | – | GFP-fused Nox2-interacting C-terminal fragment of TRPC3 (C3-C fragment) (domain or fragment)
2 | binds | binds | binds | binds | EGFP-fused TRPC3 (TRPC3-GFP) (from UniProt Q9QZC1)

Results are given in words; binding and its absence hold for the method and conditions named. Binding seen in cells or lysates may run through a third protein. Binding can be weak; no strength is given. For some assays here: Sequences can lack the tags named with a protein.
